Results published in patent US20130273143A1.
Results are given in words; binding and its absence hold for the method and conditions named. Binding seen in cells or lysates may run through a third protein. Some results given as binding are weak or reduced against the parent protein; the word gives no strength.

The chains behind the UniProt entries cited, without tags or fusion partners.
UniProt Q07813: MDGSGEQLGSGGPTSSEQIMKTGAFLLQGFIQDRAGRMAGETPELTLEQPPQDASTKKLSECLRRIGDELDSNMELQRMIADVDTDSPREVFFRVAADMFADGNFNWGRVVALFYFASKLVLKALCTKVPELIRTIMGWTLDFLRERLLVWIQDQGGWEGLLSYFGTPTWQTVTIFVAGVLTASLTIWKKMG

Key:
Bax (mouse) [1] = target: Bax (mouse) (UniProt Q07813); assay: co-immunoprecipitation from mouse heart homogenate, both directions
Bax (mouse) [2] = target: Bax (mouse) (UniProt Q07813); assay: co-immunoprecipitation from mouse heart homogenate (anti-Hsp20 or anti-Bax beads), immunoblot
Bax (mouse) [3] = target: Bax (mouse) (UniProt Q07813); assay: co-immunoprecipitation with anti-Hsp20 antibody, immunoblot with anti-Bax

binding (Bax (mouse) [1]): binds
binding (Bax (mouse) [2]): binds
binding (Bax (mouse) [3]): binds
B1: Heat-Shock Protein Hsp20 (protein, mouse, UniProt Q5EBG6 1-162, looked up)
chain: MEIPVPVQPSWLRRASAPLPGFSAPGRLFDQRFGEGLLEAELASLCPAAIAPYYLRAPSVALPTAQVSTDSGYFSVLLDVKHFLPEEISVKVVDDHVEVHARHEERPDEHGFIAREFHRRYRLPPGVDPAAVTSALSPEGVLSIQATPASAQAQLPSPPAAK
